Reference: PubChem BioAssay AID493014 (National Center for Advancing Translational Sciences (NCATS), 2011)
About 170 (0.05%) of roughly 340,000 compounds were called active. Inconclusive results, whose numbers are uncertain, are shown with a selection of clear calls. Calls follow the shape of the dose curve; as a rule, active = well fitted inhibition curve with a large enough effect in the signal ratio, with a control signal flat (not every such curve was filed as active); inconclusive = small, poorly fitted or top-dose-only effect, or effect the other way, or a change in a side signal; inactive = flat fitted curve, though single readings scatter; the % refers to the signal ratio. A potency beside an inconclusive call is a rough fit, not a confirmed value.

Assay: qHTS Assay to Find Inhibitors of Chronic Active B-Cell Receptor Signaling;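 as to activity change, negative = inhibition: plate controls were basal doxycycline-induced cells for no effect and cells given 10 µM MG132 for full effect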
Conditions: ABC-DLBCL IkBa-CBG/CBR reporter, luminescence ratio (green luciferase fused to IkBa over red control in TMD8 lymphoma cells), 4 h; activity change, negative = inhibition: at 46.1 µM (top of the series)
Summary of the method: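 Cell line TMD8 (human ABC DLBCL), stably expressing tet-inducible CBG68-IkBa fusion and CBR; IMDM/0.5% FBS; cpd up to 46 uM; dox induction, 4 h, 37C/5% CO2; dual luminescence; green/red ratio; MG132 control.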
Potency is read from the fitted curve at half-maximal effect.

SMILES	activity change, negative = inhibition	Potency
CS(=O)(=O)c1ccc(C(=O)OCC(=O)NC23CC4CC(CC(C4)C2)C3)cc1[N+](=O)[O-]	inactive: 6.64%	–
CC(c1nnc(SCC(=O)N(C)C2CCS(=O)(=O)C2)n1-c1ccccc1)N(C)C (centres undefined)	inactive: 6.53%	–
Cc1ccc(NC(=O)COc2ccccc2CNC(C)(C)CC(C)(C)C)cc1	inconclusive: 25.3%	–
COc1ccc(C2=NNC(c3cccs3)=Nc3ccc(OC)cc32)cc1	–	inconclusive: 29.1 µM [falling, single point]
CCc1cc(=S)n2c([nH]c3ccccc32)c1C#N	–	inconclusive: 35.5 µM [falling, single point]
CCOc1ccc(NS(=O)(=O)c2ccc3c(c2)N(C(C)=O)CCS3)cc1	–	inconclusive: 22.4 µM [falling, single point]
COc1ccc(NC(=O)Nc2nccs2)cc1	inactive: -2.29%	–
CCOc1cc(CNc2ccc(N3CCCC3)cc2)cc(Cl)c1OC	inactive: -12.4%	–
CC(OC(=O)C1=Cc2ccccc2OC1)C(=O)NCc1ccco1 (centres undefined)	inconclusive: 1.1%	–
CCOC(=O)C(Cc1ccccc1)NC(=O)CCc1c(C)nc2ncnn2c1C (centres undefined)	inactive: -2.33%	–
COc1ccc(C)cc1NC(=O)COC(=O)Cc1ccc(-c2ccccc2)cc1	–	inconclusive: 1.84 µM [falling, full curve, poor fit]
CCCC1CCC(=NNC(=O)CNc2ccc(OC)cc2)CC1 (centres undefined)	inactive: -6.1%	–
COc1ccc(C(=O)/C(=C\c2sccc2C)c2nc3ccccc3o2)cc1	inconclusive: -7.63%	–
CSc1ccccc1C(=O)NCc1ccccc1C	inactive: -2.85%	–
COC(=O)Cn1c(N2CCCC2)nc2c1c(=O)n(C)c(=O)n2C	inactive: 0.766%	–
CC(C)NC(=O)N(O)C1N(C(C)C)C(=O)N(Cc2ccc3c(c2)OCO3)C1(C)C (centres undefined)	inconclusive: -0.789%	–
O=C1/C(=C\c2ccco2)SC(=S)N1c1ccccc1	inconclusive: 7.16%	–
Cc1ccc(S(=O)(=O)N(C)C)cc1-n1c(SCC(=O)Nc2ccc(F)c(F)c2F)nc2ccccc2c1=O	inconclusive: 2.89%	–
CC(/C=C/c1ccccc1)=N\NC(=O)c1cc(C)nc2ccccc12	inactive: -2.09%	–
Clc1ccc(COn2c(-c3ccc(Cl)cc3Cl)nc3ncccc32)cc1	inconclusive: 5.11%	–
Cc1nc(NC(=O)c2ccc(Br)s2)sc1C(=O)N(C)C	inconclusive: 13.7%	–

SMILES	activity change, negative = inhibition	Potency
CC1(C)CC(=O)c2cnc3nc4ccccc4n3c2C1	inconclusive: -17.7%	–
C=CCNC(=S)N/N=C/c1cn(-c2ccccc2)nc1-c1ccc(OC)cc1	–	inconclusive: 0.461 µM [falling, full curve, poor fit]
CC1Cc2ccccc2N1S(=O)(=O)c1cccc(C(=O)N2Cc3ccccc3CC2C(N)=O)c1 (centres undefined)	inactive: -4.63%	–
COc1ccc(OCc2nc3ccccc3[nH]2)cc1	–	inconclusive: 4.61 µM [falling, partial curve]
O=C(NCc1cccc(CNC(=O)Nc2cccc(O)c2)c1)Nc1cccc(O)c1	inconclusive: -13.9%	–
CCC(C(=O)Nc1cc(C)nn1-c1nc(C)cc(C)n1)c1ccccc1 (centres undefined)	inconclusive: -12.7%	–
CCN(C(=O)c1ccc(C(C)(C)C)cc1)c1nnc(Cn2nnc3ccccc32)s1	inconclusive: -21.3%	–
Cc1ccc(C)c(N2CCN(C(=O)CSc3ccsc3[N+](=O)[O-])CC2)c1	–	inconclusive: 0.164 µM [falling, full curve, poor fit]
CC(C)N(C(=O)CSc1nnc(Cc2csc(Nc3ccccc3)n2)o1)C(C)C	inconclusive: -5.54%	–
Cc1cc(OCC(=O)OCC(=O)NCc2cccs2)ccc1Cl	inactive: 0.416%	–
O=C(C1CCN(S(=O)(=O)c2ccc(Cl)cc2)CC1)N1CCN(c2ccccn2)CC1	inconclusive: 0.0538%	–
NS(=O)(=O)c1ccc(NCC2COc3ccccc3O2)c([N+](=O)[O-])c1 (centres undefined)	inconclusive: -1.08%	–
O=C(COC(=O)c1cccc(S(=O)(=O)NCc2ccccc2)c1)Nc1ccccc1OC(F)F	inconclusive: 22.2%	–
Fc1ccc(Nc2nc(SCc3ccccc3F)nc3ccccc23)cc1	–	inconclusive: 4.47 µM [rising, partial curve]
Cc1nc2ccc(NC(=O)Cc3ccsc3)cc2s1	inactive: 22.4%	–
COc1ccc(/C=N/Nc2cc(N3CCOCC3)nc(C)n2)c(OC)c1	inactive: -11.7%	–
O=C(NCC(c1ccco1)N1CCN(c2ccccc2F)CC1)c1ccco1 (centres undefined)	inconclusive: 6.72%	–
Cc1nnc(-c2cnn(C)c2N)n1Cc1cccc(Cl)c1	inconclusive: 0.18%	–
O=C(Nc1cccnc1)c1cc(-c2ccc(F)cc2)on1	–	inconclusive: 4.47 µM [rising, full curve, poor fit]
Nc1nc(-c2cc(-c3ccccc3)no2)cs1	–	inconclusive: 35.5 µM [rising, single point]
COc1ccc(CN(CC2CCC(C(=O)O)CC2)C(=S)Nc2cc(Cl)ccc2OC)cc1 (centres undefined)	inconclusive: 3.07%	–

SMILES	activity change, negative = inhibition	Potency
COC(=O)c1cnn2c1C(=O)N(Cc1cccs1)CC2	inconclusive: 12.1%	–
O=C(O)COc1ccc2nsnc2c1Cl	inactive: 0.0179%	–
COc1cc(CCC(=O)OCC(=O)Nc2sccc2C(N)=O)cc(OC)c1OC	inactive: -0.587%	–
COc1ccccc1-c1nnc2sc(-c3ccc(N(C)C)cc3)nn12	–	inconclusive: 0.326 µM [falling, full curve]
CC(C)C(=O)N1CCN(c2ccccc2NC(=O)COc2ccccc2)CC1	–	inconclusive: 35.5 µM [falling, single point]
CC1(C)Cc2c(cnn2-c2ccccc2)C(NC(=O)c2ccc[n+]([O-])c2)C1 (centres undefined)	inactive: -1.65%	–
O=C(Nc1ccon1)c1nc[nH]c1C(=O)NCc1ccccc1	inconclusive: 10.6%	–
CCn1cc(CCC(=O)NCCN2CCOCC2)c2ccccc21	inconclusive: 4.83%	–
O=c1[nH]nc(SCCS(=O)(=O)c2ccc(F)cc2)n1-c1ccccc1	–	inconclusive: 12.6 µM [falling, partial curve, poor fit]
Cc1ccc(NC(=S)NNc2ccc([N+](=O)[O-])cc2S(=O)(=O)Nc2ccccc2C(=O)O)cc1C	inactive: 11.4%	–
CN(Cc1ccc(C(C)(C)C)cc1)C(=O)C1CSC2(C)CCC(=O)N12 (centres undefined)	inactive: -1.12%	–
Cc1ccc(-c2n[nH]c(=S)n2C)cc1Cl	inactive: -6.68%	–
O=C(NCCc1ccccc1)C(=O)NCC1OCCN1S(=O)(=O)c1ccc(Cl)cc1 (centres undefined)	inconclusive: -0.908%	–
Cc1csc(SCC(=O)Nc2nc3ccccc3s2)n1	–	inconclusive: 23.1 µM [falling, single point]
CCn1c(=O)[nH]c2cc(C(=O)N3CCN(c4ccccc4)CC3)ccc2c1=O	inactive: 21.5%	–
Cc1cccc(NC(=S)/N=C(\N)Nc2nc(C)c3cc(C)ccc3n2)c1	inactive: -16.4%	–
CCCCCCOc1ccc(N2C(=O)CC(N3CCN(CCN=CC4=C(O)CC(C)(C)CC4=O)CC3)C2=O)cc1 (centres undefined)	–	inconclusive: 6.31 µM [falling, single point]
Cc1cc(N2CCN(C)CC2)n2nc(-c3ccc(Cl)cc3)nc2n1	inconclusive: -5.25%	–
C/C(=N/NC(N)=S)c1cc2ccc(O)cc2oc1=O	–	inconclusive: 3.55 µM [falling, full curve, poor fit]
CCOc1ccc(CCn2c(-c3ccco3)nc3ccccc3c2=O)cc1OCC	inconclusive: -9.51%	–
COc1ccc2[nH]c3c(=O)n(CCCC(=O)NC4CCC(C)CC4)c(=S)[nH]c3c2c1 (centres undefined)	inactive: -1.86%	–

SMILES	activity change, negative = inhibition	Potency
O=C(NC1CCCCC1)C(c1cccs1)N(CCCN1CCOCC1)C(=O)c1ccc(-c2ccccc2)[nH]1 (centres undefined)	–	inconclusive: 3.55 µM [rising, partial curve, poor fit]
CC(C)(C)[C@H]1CCC(=O)N([C@H](CSc2ccc(Br)cc2)Cc2ccccc2)CC1	inactive: -1.01%	–
O=C(NC(=S)NC1CCCCC1)c1ccc(F)cc1	inactive: -13.4%	–
COc1ccc(-c2noc(CCC(=O)Nc3nc4ccccc4s3)n2)cc1	inconclusive: 18.7%	–
Cc1cc(NC(=O)CSc2cn(CCNC(=O)c3ccccc3)c3ccccc23)no1	inconclusive: -6.06%	–
CCn1c(=O)c([N+](=O)[O-])c(NCc2ccco2)c2ccccc21	inconclusive: -15.5%	–
CC(=O)N1CCC(N(CCN2CCOCC2)C(=S)Nc2cccc(C)c2C)CC1	inconclusive: 22.4%	–
O=C(NNc1cccc(Cl)n1)C(F)(F)F	inconclusive: 9.77%	–
Cc1cc(NC(=O)CSc2nc3c(cc2C#N)CCC3)no1	inactive: 18.6%	–
COc1cccc(N2CCN(CC(=O)Nc3ccccc3C(=O)NCc3ccccc3)CC2)c1	inactive: -16.1%	–
Cc1ccc(C(C[N+](=O)[O-])c2c(-c3ccccc3O)[nH][nH]c2=O)cc1 (centres undefined)	–	inconclusive: 29.1 µM [cytotoxic, single point]
COc1ccc(C(NC(=O)C(C)C)c2c(O)ccc3ccccc23)cc1 (centres undefined)	inactive: -2.86%	–
COc1ccc2nc(NC(=O)[C@@H]3CCCN3C(=O)c3cccs3)sc2c1	inconclusive: 10.2%	–
CCc1nnc(NC(=O)c2sc3nc4c(cc3c2N)CCCCCC4)s1	inactive: 24%	–
CC(C)Cc1ccc(C(C)C(=N)N)cc1 (centres undefined)	inconclusive: -18.1%	–
CCOC(=O)CNC(=O)C1(/C=C/c2ccccc2)CC(=O)N1c1ccc(C)cc1 (centres undefined)	inconclusive: 1.33%	–
COC(=O)c1cc(C(=O)c2cccc(Cl)c2Cl)cn1C	inactive: 2.21%	–
CCSc1nnc(NC(=O)CSc2nccn2-c2cccc(C)c2C)s1	inactive: 10.6%	–
CCOc1ccc(C(=O)CCC(=O)N2CCN(c3ncccn3)CC2)cc1	inconclusive: 2.06%	–
O=C(CSC1=NCCS1)Nc1ccnc2ccccc12	inconclusive: -1.15%	–
COc1ccc(CCNC(=O)C2CCCN(Cc3nc(-c4ccccc4C)oc3C)C2)cc1OC (centres undefined)	inconclusive: -15.7%	–

One compound at a time, from the list above.
CC(=O)N1CCC(N(CCN2CCOCC2)C(=S)Nc2cccc(C)c2C)CC1 as listed: activity change, negative = inhibition: inconclusive: 22.4%
O=C(NC1CCCCC1)C(c1cccs1)N(CCCN1CCOCC1)C(=O)c1ccc(-c2ccccc2)[nH]1 (centres undefined) as listed: Potency: inconclusive: 3.55 µM [rising, partial curve, poor fit]
CCOc1ccc(C(=O)CCC(=O)N2CCN(c3ncccn3)CC2)cc1 as listed: activity change, negative = inhibition: inconclusive: 2.06%
COc1ccc(C(NC(=O)C(C)C)c2c(O)ccc3ccccc23)cc1 (centres undefined) as listed: activity change, negative = inhibition: inactive: -2.86%
